Measured values as given in PMC10267362 (Frontiers in Medicine, 2023).
Where a sequence shows no end group, the ends are not given.

Assay: general procedure: Fmoc solid-phase peptide synthesis; rink amide resin
Details: whole synthesis, analytical RP-HPLC with UV detection at 220 nm

Sequence	final HPLC purity [%]
MASMTGGQQMG	>95
RKKKRRQRRR	95.1
TFFYGGSRGKRNNFKTEEYC	>94
